Data taken from PMC12697771.
Like-named read-outs stand apart in the source and are kept apart here. Results are given in words; binding and its absence hold for the method and conditions named. In cells and extracts the contact can be indirect. Some entries that bind do so weakly or less than the wild type. Each block holds one molecule with its values, some of them ahead of it.

By UniProt entry, the sequences of proteins in these tests, tags left out.
UniProt P61290: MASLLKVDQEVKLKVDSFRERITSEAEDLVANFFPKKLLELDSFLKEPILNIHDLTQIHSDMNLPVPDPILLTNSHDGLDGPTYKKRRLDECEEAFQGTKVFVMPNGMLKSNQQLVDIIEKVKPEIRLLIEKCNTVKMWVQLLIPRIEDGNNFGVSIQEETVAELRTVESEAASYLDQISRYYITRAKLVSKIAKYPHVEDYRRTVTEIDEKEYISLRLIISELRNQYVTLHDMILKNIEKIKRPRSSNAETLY
UniProt Q9EPW2: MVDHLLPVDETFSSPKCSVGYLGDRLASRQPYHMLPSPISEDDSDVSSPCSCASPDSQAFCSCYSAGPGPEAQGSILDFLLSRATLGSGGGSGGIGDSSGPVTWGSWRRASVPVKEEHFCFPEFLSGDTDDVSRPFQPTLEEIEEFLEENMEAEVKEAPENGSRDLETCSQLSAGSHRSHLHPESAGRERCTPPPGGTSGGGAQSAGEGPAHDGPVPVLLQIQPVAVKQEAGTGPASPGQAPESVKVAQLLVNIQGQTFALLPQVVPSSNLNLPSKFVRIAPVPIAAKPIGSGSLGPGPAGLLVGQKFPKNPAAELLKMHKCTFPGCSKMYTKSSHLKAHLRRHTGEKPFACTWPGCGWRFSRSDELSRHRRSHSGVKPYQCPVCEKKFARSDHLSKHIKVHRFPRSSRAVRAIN

Tests used:
[1] = biological target: Proteasome activator complex subunit 3 (PSME3), REGγ (UniProt P61290); assay: co-IP; cell lysate in RIPA buffer (50 mM Tris HCl, 150 mM NaCl, 1 mM EDTA, 10% glycerol, protease inhibitor); anti-DYKDDDDK/anti-HA agarose overnight at 4 °C; SDS-PAGE
[2] = biological target: Proteasome activator complex subunit 3 (PSME3), REGγ (UniProt P61290); assay: as above; remark: listed apart in the source

- binding [1]: binds
Molecule: KLF15 (from UniProt Q9EPW2 1-415)

- binding [2]: binds
B1: ACADM (protein, UniProt P45952 26-421)
chain: KAAHKQEPGLGFSFELTEQQKEFQATARKFAREEIIPVAPEYDKSGEYPFPLIKRAWELGLINAHIPESCGGLGLGTFDACLITEELAYGCTGVQTAIEANSLGQMPVILAGNDQQKKKYLGRMTEQPMMCAYCVTEPSAGSDVAAIKTKAEKKGDEYVINGQKMWITNGGKANWYFLLARSNPDPKVPASKAFTGFIVEADTPGIHIGKKELNMGQRCSDTRGIAFEDVRVPKENVLIGEGAGFKIAMGAFDRTRPTVAAGAVGLAQRALDEATKYALDRKTFGKLLVEHQGVSFLLAEMAMKVELARLSYQRAAWEVDSGRRNTYYASIAKAFAGDIANQLATDAVQIFGGYGFNTEYPVEKLMRDAKIYQIYEGTAQIQRLIIAREHIEKYKN
